The list shows a part of the results.
The molecules below were run on T1, CTL2-GFP (C. trachomatis L2/434/Bu, GFP-expressing). Details: bulk GFP, single well; 28.5 h, 10 µM; inhibitor.
T1 construct: L2/434/Bu, GFP-expressing
Design: species or system HeLa; Intracellular C. trachomatis growth in HeLa cells, bulk GFP fluorescence relative to DMSO

Row | SMILES | % of control remaining
1 | COc1ccc(CCNC(=O)N2CCCC(C(=O)O)C2)cc1OC (stereo not shown) [CBK161354] | 102.519%
2 | CN(C)C[C@@H]1Cc2cccc3cccc(c23)[C@@H]1O [CBK005877C] | 100.058%
3 | COCCN(Cc1cn2cccc(C(=O)OC)c2n1)Cc1ccco1 [CBK305366] | 125.997%
4 | Cn1c(=O)[nH]c(=O)c2c1nc(CN1CCOCC1)n2Cc1c(F)cccc1Cl [CBK270085] | 167.22%
5 | CN(CCc1ccncc1)C(=O)c1cc2ccc(F)cc2[nH]1 [CBK283215] | 127.84%
6 | Fc1ccc(COc2ccccc2CNCCN2CCOCC2)cc1 [CBK278150C] | 164.147%
7 | CC(=O)Nc1ccc(-c2cncc(Nc3ccc4c(c3)OC(F)(F)C(F)(F)O4)n2)cc1 [CBK065726] | 157.641%
8 | O=c1c(O)c(-c2ccc(F)cc2)oc2ccccc12 [CBK288369] | 122.246%
9 | C=CCOc1ccc(CN(C)Cc2nc3cc(C(=O)O)ccc3c(=O)[nH]2)cc1 [CBK295156] | 163.714%
10 | CCCNC(=O)c1nn2c(C(F)(F)F)cc(-c3ccccc3)nc2c1Cl [CBK051499] | 81.9662%
11 | O=C(CSc1ncn[nH]1)N/N=C/c1cn(-c2ccccc2)nc1-c1ccccc1 [CBK262850] | 81.8016%
12 | O=C1c2ccccc2C(=O)N1c1ccc(S(=O)(=O)NCCCO)c2ccccc12 [CBK262509] | 117.818%
13 | CCC(O)c1nc(CCSC)nn1-c1cc(=O)n(C)c2ccccc12 (stereo not shown) [CBK307711] | 111.01%
14 | CCCN(CC1CCCO1)C(=O)c1cc2ccc(OC)cc2n1C (stereo not shown) [CBK282139] | 133.839%
15 | COCCCNC(=O)Cn1ccc2ccnc(-c3cccs3)c21 [CBK282303] | 101.695%
16 | c1cncc(COc2nccnc2N2CCCC2)c1 [CBK115890] | 139.166%
17 | CCc1nccn1CCCNC(=O)Nc1cccnc1 [CBK306736] | 145.758%
18 | O=C1Nc2ccccc2Oc2ccc(S(=O)(=O)N3CCOCC3)cc21 [CBK269807] | 101.334%
19 | CCc1nn(Cc2ccncc2)c(=O)c2cc3sc(C)cc3n12 [CBK284140] | 126.444%
20 | COc1ccc(OC(=O)c2cc(S(=O)(=O)N3CCOCC3)ccc2Cl)cc1 [CBK261655] | 100%
21 | Clc1ccc2c(c1)OCC[C@@H]2Oc1cncc(N2CCNCC2)n1 [CBK172313G] | 130.975%
22 | Cn1cc(C(=O)NC(Cc2ccsc2)c2nccs2)ccc1=O (stereo not shown) [CBK285140] | 122.547%

Excerpt: entries 20 to 21
Row | SMILES | % of control remaining
20 | COc1ccc(OC(=O)c2cc(S(=O)(=O)N3CCOCC3)ccc2Cl)cc1 [CBK261655] | 100%
21 | Clc1ccc2c(c1)OCC[C@@H]2Oc1cncc(N2CCNCC2)n1 [CBK172313G] | 130.975%

From article PMC12040169 (PLOS Biology, 2025)
